Laboratory results as given in patent US20140162285A1, “Methods of Modulating Vesicular Trafficking” (The General Hospital Corporation, priority 2009, published 2014).
These are yes or no findings as the source states them, for the method shown. In cells and extracts the contact can be indirect. Some binding calls cover weakened binding; strength is not graded here.

The chains behind the UniProt entries cited, without tags or fusion partners.
UniProt Q99418: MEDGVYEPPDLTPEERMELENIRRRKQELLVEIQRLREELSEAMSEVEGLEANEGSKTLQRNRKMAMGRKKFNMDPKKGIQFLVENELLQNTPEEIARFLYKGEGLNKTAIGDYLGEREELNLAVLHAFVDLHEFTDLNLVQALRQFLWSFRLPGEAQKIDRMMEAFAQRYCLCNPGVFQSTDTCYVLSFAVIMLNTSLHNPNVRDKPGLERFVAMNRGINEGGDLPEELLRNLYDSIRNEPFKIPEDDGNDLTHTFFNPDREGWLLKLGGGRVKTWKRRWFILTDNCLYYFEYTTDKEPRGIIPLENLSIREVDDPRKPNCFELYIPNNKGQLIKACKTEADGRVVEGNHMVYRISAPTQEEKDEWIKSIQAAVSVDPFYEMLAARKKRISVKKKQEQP

How the values were obtained:
GST-ARNO(wt) (human) [1] = molecular target: GST-ARNO(wt) (human) (UniProt Q99418); test: peptide pull-down; asterisk marks interacting peptides
GST-ARNO(wt) (human) [2] = molecular target: GST-ARNO(wt) (human) (UniProt Q99418); test: peptide pull-down on streptavidin beads, anti-GST Western blot
GST-ARNO(wt) (human) [3] = molecular target: GST-ARNO(wt) (human) (UniProt Q99418); test: peptide pull-down: biotinylated peptide on streptavidin beads, GST-ARNO(wt) in solution, Western blot with anti-GST antibody; beads without peptide as blank
GST-ARNO(wt) (human) [4] = molecular target: GST-ARNO(wt) (human) (UniProt Q99418); test: peptide pull-down: biotinylated peptide on streptavidin beads, purified GST-ARNO(wt) in solution, Western blot with anti-GST antibody

Row | Binder | binding (GST-ARNO(wt) (human) [1]) | binding (GST-ARNO(wt) (human) [2]) | binding (GST-ARNO(wt) (human) [3]) | binding (GST-ARNO(wt) (human) [4])
1 | ETGEVIKWYVFLISFWC (N-terminal biotin tag) [a2N-12] | binds | binds | binds | binds
2 | VQFRDLNQNVSSFQRC (N-terminal biotin tag) [a2N-03] | binds | binds | binds | binds
3 | MGSLFRSESMCLAQLFLC (N-terminal biotin tag) [a2N-01] | binds | binds | binds | binds
4 | GYTIVTYAELDECLEDPC (N-terminal biotin tag) [a2N-11] | binds | binds | binds | binds

Other lines, results leading:

Row | binding (GST-ARNO(wt) (human) [1]) | binding (GST-ARNO(wt) (human) [2]) | binding (GST-ARNO(wt) (human) [3]) | binding (GST-ARNO(wt) (human) [4]) | Binder
5 | binds | binds | binds | binds | YGVGSYREVNPALFTIIC (N-terminal biotin tag) [a2N-22]
6 | binds | binds | binds | binds | NMCSFDVTNKCLIAEVWCPC (N-terminal biotin tag) [a2N-18]
